Some of the results follow. Further columns of the screen follow, without active or inactive calls. Most of these compounds were active or inconclusive in the main read-out, so they are no random draw. Potencies come from curve fits of mixed quality, noted in brackets.

Usually AC50 stands for the midpoint of the concentration-response curve, whichever way the signal moves.

This assay in a line: IkB Signaling. As to conditions: ABC-DLBCL IkBa-CBG/CBR dual luciferase ratio (green luciferase fused to IkBa over red control in OCI-Ly3 lymphoma cells), 4 h; measured here: control luc red channel unless noted. The essentials: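 Luminescence ratio of IκBα-fused green versus native red beetle luciferase in OCI-Ly3 cells, 4 h post-doxycycline with compound; red signal alone, scaled from basal (0%) to zero light (-100%), flagged nonspecific or cytotoxic effects.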
Take `COc1ccccc1CNC(=O)c1nn(-c2ccc(C)cc2)c(=O)c2c1c1ccccc1n2C`: the AC50 was 3.16 µM [falling, partial curve].
Under `Cc1cnc(NC(=O)CCCSc2nc3ccccc3s2)s1` stands 12.6 µM [falling, partial curve].
With `COc1ccccc1NC(=O)CSc1oc(-c2cccs2)nc1S(=O)(=O)c1ccc(C)cc1`, the AC50 is 3.98 µM [falling, partial curve].
As to `COc1cccc(C(=O)Nc2nc(-c3ccc(S(=O)(=O)N4CCOCC4)cc3)cs2)c1`, the half-maximal activity concentration (AC50) was 3.16 µM [falling, full curve].
On to `COc1cc(NC(=O)c2ccc(Br)o2)ccc1NC(=O)c1ccccc1Cl`, for which the AC50 was 15.8 µM [falling, partial curve].
As for `CCn1c(C(=O)N2CCCC(C(=O)NCCc3ccc(C)cc3)C2)cc2sccc21` (stereo not drawn), the AC50 is 15.8 µM [falling, partial curve].
For the compound `Cc1cc(Nc2cccc(F)c2)n2nc(-c3ccco3)nc2n1`, the AC50 was 10 µM [falling, partial curve].
`O=C(Cn1c(=O)oc2cc(S(=O)(=O)NCc3ccccc3)ccc21)NCc1ccc(F)cc1`: the AC50 was 15.8 µM [falling, partial curve].
Take `O=C(Cn1nc(C(F)(F)F)c2c1CCCC2)Nc1ccc(F)c(Cl)c1`: the concentration at half-maximal activity (AC50) is 39.8 µM [rising, single point] [measured here: IkB-luc green channel].
Under `Cc1cccc(N(C)C(=O)C2CCN(S(=O)(=O)c3cccc4nonc34)CC2)c1` stands 31.6 µM [falling, partial curve]; under `Cc1c(NC(=O)c2cc3ccccc3o2)cccc1-c1nc2ccccc2o1`, 7.94 µM [falling, partial curve]; under `CCCCc1nn2c(=O)cc(COC(=O)CNC(=O)c3ccccc3C)nc2s1`, 1 µM [rising, full curve].
As for `COc1ccc(OC)c(NC(=O)Cn2cc(C(=O)c3cccs3)c3ccccc32)c1`, the figure is 10 µM [falling, partial curve]; as for `COc1ccc(CNC(=O)Cc2coc3ccc(C(C)C)cc23)cc1`, 20 µM [falling, partial curve]; as for `CCOc1ccccc1CNC(=O)CSc1n[nH]c(-c2ccccc2Cl)n1`, 39.8 µM [falling, partial curve].
Consider `Cn1ccnc1Sc1nc2ccccc2nc1NS(=O)(=O)c1ccccc1`, for which the AC50 was 1.26 µM [falling, full curve].
As for `CCOC(=O)c1ccc(Nc2nc(C(=O)OCC)nc3ccccc23)cc1`, the AC50 is 25.1 µM [falling, partial curve].
As to `Cc1cc(Nc2cc(Cl)ccc2C)n2nc(Cc3ccccc3)nc2n1`, the AC50 is 39.8 µM [falling, single point].
As for `CCCOc1ccccc1C1CC(=O)Nc2cc3c(cc21)OCCO3` (stereo not drawn), the figure is 10 µM [falling, partial curve]; as for `CCCNC(=O)c1c(N)n(-c2cccc(OC)c2)c2nc3ccccc3nc12`, 15.8 µM [falling, partial curve].
With `Cc1cc(OCCn2cc(C(=O)c3ccco3)c3ccccc32)ccc1Cl`, the AC50 was 0.631 µM [falling, full curve].
For `COc1ccccc1NC(=O)CSc1oc(-c2ccco2)nc1S(=O)(=O)c1ccc(Br)cc1`, the AC50 was 15.8 µM [falling, partial curve].
With `COc1ccc(-c2nnc(SCC(=O)Oc3cccc(C)c3C)o2)cc1`, the AC50 is 15.8 µM [falling, single point].
Take `Cc1cccc(NC(=O)C2CCCN(c3nnc(-n4c(C)ccc4C)s3)C2)c1C` (stereo not drawn): the AC50 was 25.1 µM [falling, single point].
For the compound `O=C(NCc1noc2ccccc12)Nc1ccc(F)cc1F`, the AC50 is 15.8 µM [falling, single point].
For the compound `CCOC(=O)c1nc(Nc2ccccc2C)c2ccccc2n1`, the AC50 is 6.31 µM [rising, partial curve].
Regarding `COc1ccccc1-n1c(CNC(=O)c2ccc(S(=O)(=O)N3CCOCC3)cc2)n[nH]c1=S`, the AC50 was 0.316 µM [falling, full curve].
Under `COc1ccc2cc(CN(C(=O)Nc3ccccc3)C3CCCC3)c(=O)[nH]c2c1` stands 5.01 µM [falling, partial curve]; under `COc1ccc(C)cc1NC(=O)CN1C(=O)COc2ccc(S(=O)(=O)N3CCCCCC3)cc21`, 25.1 µM [falling, single point].
For the compound `CCCN(C(=O)Cn1c(=O)oc2cc(Cl)ccc21)c1ccc(C(C)C)cc1`, the AC50 is 12.6 µM [falling, partial curve].
With `CC(C)c1ccc(NC(=O)CN2C(=O)c3cccc4cccc2c34)cc1`, the AC50 was 6.31 µM [rising, single point].
Take `CCc1ccc(S(=O)(=O)c2cn(C)c3cc(OC)c(OC)cc3c2=O)cc1`: the AC50 is 15.8 µM [falling, partial curve].
`COc1ccccc1N1CCN(S(=O)(=O)c2cc(-c3cc(C)no3)ccc2C)CC1`: the AC50 was 15.8 µM [falling, partial curve].
As for `CCc1ccc2oc(C(=O)NCCc3ccc(OC)c(OC)c3)cc(=O)c2c1`, the figure is 25.1 µM [falling, partial curve]; as for `COc1cccc(CN2C(=O)C3(SCC(=O)N3c3cc(C)cc(C)c3)c3ccccc32)c1` (stereo not drawn), 7.94 µM [falling, partial curve].
For the compound `Cc1ccc(C(C)C)c(OCC(=O)Nc2nc3c(s2)CCCC3)c1`, the AC50 was 2.51 µM [falling, full curve].
On to `COc1ccc(S(=O)(=O)Nc2cc(-c3cn4cccc(C)c4n3)ccc2C)cc1C`, for which the AC50 was 20 µM [falling, single point].
Under `Cc1ccc2nc(-c3c[nH]c4ccccc34)c(Nc3ccccc3)n2c1` stands 0.0126 µM [falling, full curve]; under `Cc1coc2c1c(C)cc1oc(=O)c(CC(=O)NCc3ccc(Cl)cc3)c(C)c12`, 0.398 µM [rising, full curve]; under `Cc1ccc(C2(c3ccc(C)cc3)NC(=O)N(Cc3c(C)noc3C)C2=O)cc1`, 31.6 µM [falling, single point].
Regarding `Cc1cc(O)c(C(C)(C)C)cc1Sc1cc(C(C)(C)C)c(O)cc1C`, the AC50 was 12.6 µM [falling, partial curve].
On to `COc1ccccc1Oc1nc2c(C)cccn2c(=O)c1/C=C(\C#N)c1nc2ccccc2[nH]1`, for which the AC50 was 0.02 µM [falling, full curve, poor fit].
As for `Cc1nn(CC(=O)NCc2cccc(F)c2)c(=O)c2c(C)n(-c3ccc(Cl)cc3)nc12`, the figure is 31.6 µM [falling, partial curve]; as for `CS(=O)(=O)c1ccc2nc(NC(=O)c3ccco3)sc2c1`, 10 µM [falling, partial curve]; as for `COc1ccc2nc(N(Cc3cccnc3)C(=O)c3ccco3)sc2c1`, 10 µM [falling, single point].
For `COc1ccc(N(C(=O)c2ccccc2C)S(=O)(=O)c2ccc(C)cc2)cc1`, the AC50 is 10 µM [falling, partial curve, poor fit].
Consider `Cc1ccc2c(c1)c1c(c(=O)n(-c3ccccc3)c(=O)n1CC(=O)NCCC1=CCCCC1)n2C`, for which the AC50 was 2 µM [falling, full curve].
Under `CCOC(=O)C1=C(CN2CCN(c3cc(C)ccc3C)CC2)NC(=O)NC1c1ccccc1` (stereo not drawn) stands 39.8 µM [falling, single point]; under `CCOC(=O)c1cc(-c2ccc(C)cc2)n(CC(=O)Nc2ccc(OC)c(Cl)c2)c1C`, 20 µM [rising, partial curve]; under `Cc1ccc(CCNC(=O)c2cc3sccc3n2Cc2ccc(Cl)cc2)cc1`, 3.16 µM [falling, partial curve].
As for `CC1CCCCN1C(=O)CSc1nc2ccccc2nc1Cc1ccc(Cl)cc1` (stereo not drawn), the figure is 25.1 µM [falling, single point].
Consider `CCOc1ccc(C(=O)N2CCN(Cc3cc(=O)n4nc(-c5cccc(OC)c5)sc4n3)CC2)cc1`, for which the AC50 was 25.1 µM [falling, partial curve].
In the case of `Cc1cccc(NC(=O)c2ccc(F)c(S(=O)(=O)N(C)C3CCCCC3)c2)c1`, the AC50 is 15.8 µM [falling, partial curve].
Consider `COc1ccc(NC(=O)C(C)n2nc(C)c3c(C)n(-c4ccccc4)nc3c2=O)cc1Cl` (stereo not drawn), for which the AC50 is 39.8 µM [falling, single point].
As for `CCOCCCNC(=O)C(c1ccc(Cl)cc1)N(Cc1ccc2c(c1)OCO2)C(=O)c1ccccc1O` (stereo not drawn), the figure is 12.6 µM [falling, partial curve]; as for `O=C(NCc1ccc2c(c1)OCO2)C1CCN(S(=O)(=O)c2ccc(Br)s2)CC1`, 12.6 µM [falling, partial curve].
Turning to `COc1ccc(-c2nc(S(=O)(=O)c3ccccc3)c(N3CCCCC3)o2)cc1`, the AC50 is 20 µM [falling, partial curve].
On to `CCN(Cc1nc(-c2ccc(OC)cc2)oc1C)S(=O)(=O)c1ccc(Cl)cc1`, for which the AC50 was 25.1 µM [falling, single point].
For `Cc1ccc(C)c(OCCCn2c(-c3ccc(Cl)cc3)nc3ccccc3c2=O)c1`, the AC50 was 15.8 µM [falling, partial curve].
Regarding `CC1(C)CC(=O)C(C=NCCN2CCOCC2)=C(O)C1`, the AC50 was 31.6 µM [rising, single point].
Turning to `C=CCn1cc(C(=O)NCc2ccco2)c(=O)c2cc(S(=O)(=O)N3CCCCCC3)ccc21`, the AC50 is 12.6 µM [falling, partial curve].
Under `Cc1ccc(Cl)cc1N1CCN(C(=O)c2cn(C)c3ccc(S(=O)(=O)N4CCC(C)CC4)cc3c2=O)CC1` stands 1.26 µM [falling, partial curve].
Under `COc1ccc(NCc2nc3ccccc3n2CCOc2ccc(C)cc2)cc1` stands 1.26 µM [falling, full curve].

(Values after PubChem BioAssay AID445 (National Center for Advancing Translational Sciences (NCATS), 2006).)
